Some of these results come from one statement about several compounds together.
Target: T1, recombinant human aldose reductase (Homo sapiens, UniProt P15121)
T1 construct: made in house; host or cells: Baculovirus-insect cell system
Test: Aldose reductase inhibition (decrease with time in absorbance at 340 nm, NADPH / DL-glyceraldehyde)
Type: biochemical
Conditions: summary in words of Table 2
Source text: A large amount of recombinant human aldose reductase was expressed in a Baculovirus-insect cell system by Nishimura et al method (Nishimura et al, J. Biol. Chem. volume 265, pages 9,788-9,792, 1990 and Biochem. Biophys. Acta. volume 1,078, pages 171-178, 1991; and Tanimoto and Nishimura, Experimental Medicine, volume 9, No. 5 (extra issue), pages 165-170, 1991). Purification was made by affinity chromatography, gel filtration and chromatofocusing until electrophoretically uniform aldose reductase was obtained.
To 0.1M phosphoric acid buffer solution (0.8 ml) was added 3mM NADPH (0.05 ml), DL-glyceral-dehyde (0.1 ml) and distilled water (0.04 ml). The mixture was left to stand at 25°C for three minutes. To the mixture was added aldose reductase solution (0.01 ml) in order to start a reaction. Measurement was made of reduction with time in absorbance of 340 nm at 25°C. The amount of enzyme that consumes 1µ mole of […] per minute was taken as a unit.
Enzyme activities were measured after aqueous inhibiting substance solution (0.04 ml each) having various concentrations in place of the distilled water (0.04 ml) under the same conditions as those for aldose reductase. IC₅₀ values that inhibit enzyme activity by 50% were calculated on the basis of enzyme activities measured in the presence or absence of the inhibitors. The inhibitors used include: 8,10-dicarboxy-2-methoxycarbonyl-1H-oxazo[5,4-h] pyrrolo[2,3-f]quinoline (Compound 1, abbreviated OPQ-8,10-DCA-2-ME); 8-carboxy-2,10-dimethoxycarbonyl-1H-oxazo[5,4-h] pyrrolo-[2,3-f]quinoline (Compound 2, abbreviated OPQ-8-CA-2,10-DME); 10-(N-n-amyl)carbamoyl-2,8-dicarboxy-1H-oxazo [5,4-h]pyrrolo[2,3-f]quinoline (Compound 3, abbreviated OPQ-2,8-DCA-10-AA); 10-(N-n-amyl)carbamoyl-8-carboxy-2-methoxy-carbonyl-1H-oxazo[5,4-h]pyrrolo[2,3-f]quinoline (Compound 4, abbreviated OPQ-8-CA-2-ME-10-AA); 2,10-dicarboxy-8-methoxycarbonyl-1H-oxazo[5,4-h] pyrrolo-[2,3-f]quinoline (abbreviated OPQ-2,10-DCA-8-ME); 10-carboxy-2,8-dimethoxycarbonyl-1H-oxazo[5,4-h] pyrrolo-[2,3-f]quinoline (abbreviated OPQ-10-CA-2,8-DME); 2,8,10-trimethoxycarbonyl-1H-oxazo[5,4-h]pyrrolo [2,3-f]-quinoline (abbreviated OPQ-2,8,10-TME); 10-carboxy-2-methoxycarbonyl-1H-oxazo[5,4-h] pyrrolo-[2,3-f]quinoline (abbreviated OPQ-10-CA-2-ME); 8,10-diethoxycarbonyl-2-methoxycarbonyl-1H-oxazo [5,4-hj]yrrolo[2,3-f]quinoline (abbreviated OPQ-2-ME-8,10-DME); 10-(N-n-amyl) carbamoyl-2,8-dimethoxycarbonyl-1H-oxazo[5,4-h]pyrrolo[2,3-f]quinoline (abbreviated OPQ-2,8-DME-10-AA); and 2,8,10-tri[(N-n-amyl)carbamoyl]-1H-oxazo[5,4-h] pyrrolo-[2,3-f]quinoline (abbreviated OPQ-2,8,10-TAA).

| Compound | aldose reductase inhibiting activity |
| --- | --- |
| CCCCCNC(=O)c1cc(C(=O)O)nc2c3ncoc3c3cc(C(=O)OC)[nH]c3c12 [Compound 4, 10-(N-n-amyl)carbamoyl-8-carboxy-2-methoxy-carbonyl-1H-oxazo[5,4-h]pyrrolo[2,3-f]quinoline] | strong aldose reductase inhibiting activity |
| COC(=O)c1cc2c([nH]1)c1c(C(=O)OC)cc(C(=O)O)nc1c1ncoc21 [Compound 2, 8-carboxy-2,10-dimethoxycarbonyl-1H-oxazo[5,4-h] pyrrolo-[2,3-f]quinoline] | strong aldose reductase inhibiting activity |
| CCCCCNC(=O)c1cc(C(=O)O)nc2c3ncoc3c3cc(C(=O)O)[nH]c3c12 [Compound 3, 10-(N-n-amyl)carbamoyl-2,8-dicarboxy-1H-oxazo [5,4-h]pyrrolo[2,3-f]quinoline] | strong aldose reductase inhibiting activity |
| COC(=O)c1cc2c([nH]1)c1c(C(=O)O)cc(C(=O)O)nc1c1ncoc21 [Compound 1, 8,10-dicarboxy-2-methoxycarbonyl-1H-oxazo[5,4-h] pyrrolo[2,3-f]quinoline] | strong aldose reductase inhibiting activity |

— patent EP0670321A1, “Oxazopyrroloquinoline deivatives and use thereof” (MITSUBISHI GAS CHEMICAL COMPANY, INC., priority 1994, dated 1995)
